These results are taken from US20250388688A1 (ETHYREAL BIO, published 2025).

Sequences of proteins named here, by UniProt entry; tags and fusion partners are left off. Residues count along the entry.
UniProt P16473, residues 22-260: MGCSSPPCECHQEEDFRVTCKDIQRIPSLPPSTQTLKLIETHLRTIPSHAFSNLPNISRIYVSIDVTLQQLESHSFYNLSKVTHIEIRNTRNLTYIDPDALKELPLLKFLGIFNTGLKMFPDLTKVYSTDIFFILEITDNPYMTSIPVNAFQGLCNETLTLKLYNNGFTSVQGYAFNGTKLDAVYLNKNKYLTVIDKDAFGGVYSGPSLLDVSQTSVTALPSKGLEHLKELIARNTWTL

The target in this assay is human TSHR (antigen of the yeast display screens) (human) (UniProt P16473). Description: yeast display flow cytometry, 10 nM huTSHR at pH 7.5 and at pH 5.5; clone binding fluorescence divided by WT binding fluorescence. (In general: A flow cytometer gives signals particle by particle.)

Substitutions are numbered along the chain they refer to. These are yes or no findings as the source states them, for the method shown. Some results given as binding are weak or reduced against the parent protein; the word gives no strength.

B1: T3-1.10 (Fab, V domains shown)
VH: EVQLVQSGAEVKKPGESLKISCKGSGYSFTSYWIGWVRQMPGKGLEWMGIIYPGDTDTRYSPSFQGQVTISADKSISTAYLQWSSLKASDTAVYYCVGLDWHYNPLRYWGPGTLVTVSS
VL: QSVLTQPPSVSAAPGQKVTISCSGSSSDIGNNYVSWYQQLPGTAPKLLIYDNNKRPSGIPDRFSGSKSGTSATLGITGLQTGDEADYYCGTWESRLGIAVFGGGTQLTVL
Regarding B1, the binding result is on record as “binds”.

B2: T3-1.44 (Fab, V domains shown)
VH: B1 VH with Y32H
VL: B1 VL
In the case of B2, the binding result is on record as “binds”.

B3: T3-1.59 (Fab, V domains shown)
VH: B1 VH with S28H, S31H
VL: B1 VL
For B3, the binding entry is “binds”.

B4: T3-1.53 (Fab, V domains shown)
VH: B1 VH with S31H
VL: B1 VL with N31R
For B4, the binding entry is recorded as “binds”.

B5: T3-1.48 (Fab, V domains shown)
VH: B1 VH with S28H
VL: B1 VL with N31R
For the molecule B5, the binding result was “binds”.

B6: T3-1.38 (Fab, V domains shown)
VH: B1 VH with S28H
VL: B1 VL
B6: the binding result is on record as “binds”.

B7: T3-1.57 (Fab, V domains shown)
VH: B1 VH with S28H, T30H
VL: B1 VL
Take B7: the binding entry is listed as “binds”.

B8: T3-1.41 (Fab, V domains shown)
VH: B1 VH with T30H
VL: B1 VL
With B8, the binding entry was “binds”.
